# Measurements reported in PubChem BioAssay AID504834 (National Center for Advancing Translational Sciences (NCATS), 2011).
# “And” between values parts separate entries of the source, which are not always exact repeats. Identical values can stand only once. Screen size: about 320,000 compounds; about 22,000 (6.9%) were called active. The shares of active, inactive and inconclusive entries below differ from those in the screen. The call rests on the fitted dose curve; in most records, active means well fitted inhibition curve with a large enough effect; inconclusive means small, poorly fitted or top-dose-only effect, or another doubt; inactive means no such curve, though single readings can be large or run the other way. Potencies beside an inconclusive call are fits to weak or partial responses and may not hold up. The source holds several records for some structures; these can differ, active in one and inactive in another.
# Assay: Primary qHTS for delayed death inhibitors of the malarial parasite plastid, 96 hour incubation
# Settings: P. falciparum luciferase reporter growth; series mostly up to 28.7 µM
# In short: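 Infected RBCs, 2% Hct / 0.05% parasitemia final; luciferase-reporter P. falciparum; cpd 96 h, 37 C, 5% CO2; luciferase detection reagent; luminescence.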
# Potency means the concentration at half of the fitted maximal effect.
row,Compound,Potency
1,COc1cccc(NC(=O)CN(C)C(=O)Cn2[nH]c(=O)c3ccccc3c2=O)c1,"inconclusive: 18.5 µM [inhibitor, single point]"
2,S=c1[nH]nc(C2CCCCC2)n1/N=C/c1ccc(Br)cc1,"inconclusive: 18.5 µM [inhibitor, single point]"
3,O=C(NCc1cc(C(F)(F)F)cc(C(F)(F)F)c1)C1CC(c2cccc([N+](=O)[O-])c2)=NO1 (stereo not given),"inconclusive: 4.15 µM [inhibitor, partial curve, poor fit]"
4,COC(=O)NNC(=O)C12CC3CC(CC(C3)C1)C2,active: 4.15 µM
5,CCOC(=O)CSc1nnc(Cc2ccccc2)n1Cc1ccco1,"inconclusive: 2.08 µM [inhibitor, full curve, poor fit]"
6,COc1ccc(C(C)=O)cc1COC(=O)Cc1n[nH]c(=O)c2ccccc12,"inconclusive: 11.7 µM [inhibitor, single point]"
7,COc1cccc(CN2C(=O)c3cccc(N)c3C2=O)c1,inactive
8,COC(=O)c1ccc(NC(=O)CO/N=C2\CCCc3nonc32)cc1,"inconclusive: 0.415 µM [inhibitor, partial curve, poor fit]"
9,Cc1ccccc1C(=O)c1cccn1CC(=O)NCCCN1CCCCC1,inactive
10,O=C1CC[C@@H](C(=O)O)N1,inactive and active: 13.5 µM
11,NS(=O)(=O)c1cccnc1Nc1cccc(C(F)(F)F)c1,inactive
12,CCOc1ccc2nc(N3CCCC(C(=O)NCCCN4CCOCC4)C3)sc2c1 (stereo not given),"inconclusive: 2.08 µM [inhibitor, full curve, poor fit]"
13,O=C(C1CC(=O)N(C2CCCCCCC2)C1)N1CCC2(CC1)OCCO2 (stereo not given),"inconclusive: 18.5 µM [inhibitor, single point]"
14,O=C(NCc1ccccc1)NC(=O)c1ccccc1F,"inconclusive: 18.5 µM [inhibitor, single point]"
15,CCn1nnnc1NCc1c(OC)ccc2ccccc12,"inconclusive: 10.4 µM [inhibitor, single point]"
16,COc1ccc(N2CCN(c3ncnc4scc(-c5ccccc5)c34)CC2)cc1,"inconclusive: 6.57 µM [inhibitor, partial curve, poor fit]"
17,Cc1cc2c(cc1S(=O)(=O)Nc1ccc(C(C)C)cc1)OCCN2C,active: 11.7 µM
18,Cn1c(-c2nonc2N)nc2ccccc21,active: 10.4 µM
19,CC(Sc1nc2cc(Cl)ccc2s1)C(=O)Nc1cccc(S(=O)(=O)N2CCOCC2)c1 (stereo not given),active: 13.1 µM
20,COC(=O)c1ccc(S(=O)(=O)N2CCN(CCO)CC2)n1C,inactive
21,O=C(CSc1nncs1)Nc1ccc(Cl)cn1,"inconclusive: 13.1 µM [inhibitor, single point]"
22,CCOC(=O)C1CCN(C(=O)Nc2ccc3nc(C)c(C)nc3c2)CC1,"inconclusive: 18.5 µM [inhibitor, single point]"
23,CNS(=O)(=O)c1cccc(C(=O)OCc2csc(-c3ccccc3)n2)c1,inactive
24,CC(C)C(=O)NCCc1nc2ccccc2n1CCc1ccccc1,inactive
25,N#CCCN(C(=O)CSc1ncccn1)c1ccc2c(c1)OCCO2,"inconclusive: 2.08 µM [inhibitor, single point]"

row,Compound,Potency
1,CN1CCN(S(=O)(=O)c2cccc(C(=O)NC3(C)CCS(=O)(=O)C3)c2)CC1 (stereo not given),"inconclusive: 18.5 µM [inhibitor, single point]"
2,O=C(NCC1CCCN(Cc2cccc(OCCO)c2)C1)c1ccc(F)cc1 (stereo not given),"inconclusive: 18.5 µM [inhibitor, single point]"
3,COc1ccc(C2c3c(ncn(Cc4ccco4)c3=N)Oc3ccc4ccccc4c32)cc1 (stereo not given),"inconclusive: 18.5 µM [inhibitor, single point]"
4,C#CC(C)(CC)NC(=O)c1cc2nc(C3CC3)cc(C(F)(F)F)n2n1 (stereo not given),inactive
5,O=C(c1cc(F)ccc1F)C1CCCN(C(=O)c2ccco2)C1 (stereo not given),"inconclusive: 18.5 µM [inhibitor, single point]"
6,O=C(NCc1ccccc1)c1cc[n+](Cc2ccccc2)cc1,"inconclusive: 11.7 µM [inhibitor, partial curve, poor fit]"
7,O=C(CN1CCN(c2ccc(F)cc2)CC1)Nc1ccccc1[N+](=O)[O-],inactive
8,Cc1ccc(C(=O)Nc2ccccn2)cc1S(=O)(=O)N1CCOCC1,inactive
9,CCN1CCN(C(=O)CS(=O)(=O)Cc2nc(-c3ccc(C)cc3)oc2C)CC1,"inconclusive: 9.28 µM [inhibitor, single point]"
10,Cn1ncc(Br)c1NC(=O)CSc1ccc(Cl)cc1,inactive
11,Cc1ccc(S(=O)(=O)N(C(=N)N)c2nc(N(C)C)nc(N(C)C)n2)cc1,"inconclusive: 10.4 µM [inhibitor, single point]"
12,CC(C)N=c1scc(-c2cccs2)n1/N=C/c1ccc(O)c(O)c1O,"inconclusive: 18.5 µM [inhibitor, single point]"
13,CC(=O)NCCNC(=O)c1ccc(-n2c(C)ccc2C)cc1,"inconclusive: 18.5 µM [inhibitor, single point]"
14,CCC(=O)Nc1cccc(NC(=S)NC(=O)c2ccc(Cl)cc2Cl)c1,"inconclusive: 18.5 µM [inhibitor, single point]"
15,CS(=O)(=O)N(CC(=O)NCc1ccco1)c1cccc([N+](=O)[O-])c1,"inconclusive: 18.5 µM [inhibitor, single point]"
16,O=c1oc2ccccc2c2c1SC(C(F)(F)F)C2 (stereo not given),"inconclusive: 0.0828 µM [inhibitor, full curve, poor fit]"
17,c1ccc(C(c2ccccc2)N2CCN(c3nc4ccccc4n4cnnc34)CC2)cc1,active: 1.65 µM
18,COc1ccc(/C=N/NC(=O)c2csc(-n3nc(C)cc3C(F)(F)F)n2)cc1,"inconclusive: 1.65 µM [inhibitor, full curve, poor fit]"
19,Brc1cccc(CNCC2CCCO2)c1 (stereo not given),inactive
20,Cc1cc(C)nc(N2Cc3ccccc3C2=N)n1,"inconclusive: 13.1 µM [inhibitor, single point]"
21,FC(F)(F)c1cc(-c2ccc(Cl)cc2)nc2ncnn12,"inconclusive: 18.5 µM [inhibitor, single point]"
22,COc1ccccc1-c1cn[nH]c1-c1ccc(OCc2ccccc2F)cc1O,active: 3.7 µM
23,CCOC(=O)c1cc(-c2ccccc2)sc1NC(=O)CSc1nncs1,inactive
24,Cc1cc(C2=CC(=O)C[C@H](c3ccc4c(c3)OCO4)C2)ccc1F,"inconclusive: 16.5 µM [inhibitor, single point]"
25,CCOC(=O)C1CCN(C(=O)C2CCN(S(=O)(=O)c3c(C)noc3C)CC2)CC1,active: 4.15 µM

row,Compound,Potency
1,O=C(CSc1nc2ccccc2n1CCc1ccccc1)NC1CCS(=O)(=O)C1 (stereo not given),"inconclusive: 13.1 µM [inhibitor, single point]"
2,O=C(COc1ccc(Cl)cc1)Nc1ccc2c(c1)C(=O)NC2=O,"inconclusive: 3.29 µM [inhibitor, partial curve, poor fit]"
3,Nc1c(C(=O)Nc2cccc(F)c2)nnn1-c1ccc2c(c1)OCCO2,inactive
4,O=C(C1CCN(S(=O)(=O)c2ccccc2)CC1)N1CCc2ccccc21,"inconclusive: 10.4 µM [inhibitor, single point]"
5,CCCCOC(=O)CCc1n[nH]c(=O)[nH]c1=O,"inconclusive: 13.1 µM [inhibitor, single point]"
6,O=C(O)Cc1ccc(O)c(F)c1,inactive
7,O=[N+]([O-])c1ccc(C2OCCO2)cc1CS(=O)(=O)c1ccccc1,inactive
8,COC(=O)c1ccc(/C=N/Nc2nc3ccccc3[nH]2)cc1,"inconclusive: 0.657 µM [inhibitor, full curve, poor fit]"
9,Cc1ccccc1C(N)c1ccncc1 (stereo not given),active: 5.86 µM
10,COc1ccc(NC(C)=O)cc1NC(C)C(=O)Nc1cc(C(F)(F)F)ccc1N1CCOCC1 (stereo not given),"inconclusive: 1.65 µM [inhibitor, partial curve]"
11,Cc1cccn2c(=O)nc(SCC(=O)NCc3ccccc3Cl)nc12,inactive
12,O=C(COC(=O)CNC(=O)c1ccc(Cl)cc1Cl)NC1CCCCC1,inactive
13,NCCCn1c(C(=O)c2cc(Cl)c(N)c(Cl)c2)c2ccccc2[n+]1[O-],"inconclusive: 2.62 µM [inhibitor, partial curve, poor fit]"
14,CCc1noc(C)c1C(=O)Nc1ncc(C)s1,inactive
15,NS(=O)(=O)c1ccc(CNC(=O)Cc2ccccc2F)cc1,inactive
16,COc1ccccc1/C=C/C1(C(=O)NC2CCCC2)CC(=O)N1c1ccccc1 (stereo not given),"inconclusive: 18.5 µM [inhibitor, single point]"
17,Cc1csc(NC(=O)CSc2nnc(C)c(=O)n2N)n1,inactive
18,CC(=O)c1cn(Cc2ccc(F)cc2)c2ccccc12,"inconclusive: 4.15 µM [inhibitor, single point]"
19,CN1CCN(C(=O)CC2(CC(=O)O)CCCC2)CC1,inactive
21,COC(C[C@H]1O[C@H]1C(=O)COCc1ccccc1)OC,inactive
22,O=C(CSc1nnc2ccccn12)c1ccccc1,"inconclusive: 0.0738 µM [inhibitor, full curve, poor fit]"
23,O=C(O)CNC(=O)c1ccccc1,"inconclusive: 8.28 µM [inhibitor, partial curve, poor fit]"
24,COc1ccc(C(=O)NC2CCCc3c2cnn3-c2cc(F)cc(F)c2)c(OC)c1OC (stereo not given),inactive
25,COCCCn1c(=O)c2sccc2n2c(CCCC(=O)NCc3ccccc3OC)nnc12,"inconclusive: 9.28 µM [inhibitor, partial curve]"
